From PMC10275753
No constants are given. Whether binding was seen depends on the method and setting. In cells and extracts the contact can be indirect. Some binding calls cover weakened binding; strength is not graded here.

Amino acid sequences for entries named in this document (tags omitted). Residues count along the entry.
UniProt O88844: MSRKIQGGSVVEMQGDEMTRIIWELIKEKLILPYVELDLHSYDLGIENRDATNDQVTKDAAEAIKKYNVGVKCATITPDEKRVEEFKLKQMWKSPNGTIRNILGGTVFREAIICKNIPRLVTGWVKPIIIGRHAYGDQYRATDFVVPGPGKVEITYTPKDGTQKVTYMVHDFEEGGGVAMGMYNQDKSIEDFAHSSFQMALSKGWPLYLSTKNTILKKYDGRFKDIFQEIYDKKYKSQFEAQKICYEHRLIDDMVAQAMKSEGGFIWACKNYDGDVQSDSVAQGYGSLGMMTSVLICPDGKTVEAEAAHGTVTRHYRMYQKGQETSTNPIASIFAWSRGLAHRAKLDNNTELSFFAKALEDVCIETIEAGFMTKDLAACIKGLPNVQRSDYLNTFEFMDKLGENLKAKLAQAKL
UniProt P01731, residues 28-247: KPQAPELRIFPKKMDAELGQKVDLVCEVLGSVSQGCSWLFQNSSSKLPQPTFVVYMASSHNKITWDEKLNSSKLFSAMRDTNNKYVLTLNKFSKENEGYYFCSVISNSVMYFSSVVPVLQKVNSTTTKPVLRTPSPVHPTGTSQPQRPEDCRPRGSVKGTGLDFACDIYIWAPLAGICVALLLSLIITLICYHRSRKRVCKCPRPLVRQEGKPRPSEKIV

Target: Isocitrate Dehydrogenase-1 (IDH1), native mouse protein of splenocyte lysates (mouse (endogenous in splenocytes)) (UniProt O88844)
Experiment: co-IP; anti-IDH1 immunoprecipitation of native IDH1 from surface-biotinylated mouse splenocyte lysates (wild-type or CD8β-deficient); protein G agarose; blots with streptavidin or anti-CD8α (2.43); reducing conditions

“CD8αα dimer, mouse, from CD8β-deficient splenocytes (from UniProt P01731 28-247) (complex)” was tested, and the binding was “binds”.
